Measurements as given in US9598364B2, “Indolyl or indolinyl hydroxamate compounds” (Taipei Medical University, priority 2010, dated 2017).

System: Kasumi-1
Test: MTT cell viability assay, Kasumi-1
Format: cell-based
Details: Kasumi-1 leukemia cells, 48 or 72 hr
From the text: Various concentrations for the test compound were examined.

O=C(CCCCCCC(=O)Nc1ccccc1)NO [SAHA, reference compound]
GI50: 292 nM
